Results are given in words; binding and its absence hold for the method and conditions named. Binding seen in cells or lysates may run through a third protein. A yes stands for co-enrichment or nearness to the bait. Other partners may have been found.
B1: Scy1-like1 (HeLa) (protein, UniProt Q96KG9-1 1-808)
chain: MWFFARDPVRDFPFELIPEPPEGGLPGPWALHRGRKKATGSPVSIFVYDVKPGAEEQTQVAKAAFKRFKTLRHPNILAYIDGLETEKCLHVVTEAVTPLGIYLKARVEAGGLKELEISWGLHQIVKALSFLVNDCSLIHNNVCMAAVFVDRAGEWKLGGLDYMYSAQGNGGGPPRKGIPELEQYDPPELADSSGRVVREKWSADMWRLGCLIWEVFNGPLPRAAALRNPGKIPKTLVPHYCELVGANPKVRPNPARFLQNCRAPGGFMSNRFVETNLFLEEIQIKEPAEKQKFFQELSKSLDAFPEDFCRHKVLPQLLTAFEFGNAGAVVLTPLFKVGKFLSAEEYQQKIIPVVVKMFSSTDRAMRIRLLQQMEQFIQYLDEPTVNTQIFPHVVHGFLDTNPAIREQTVKSMLLLAPKLNEANLNVELMKHFARLQAKDEQGPIRCNTTVCLGKIGSYLSASTRHRVLTSAFSRATRDPFAPSRVAGVLGFAATHNLYSMNDCAQKILPVLCGLTVDPEKSVRDQAFKAIRSFLSKLESVSEDPTQLEEVEKDVHAASSPGMGGAAASWAGWAVTGVSSLTSKLIRSHPTTAPTETNIPQRPTPEGVPAPAPTPVPATPTTSGHWETQEEDKDTAEDSSTADRWDDEDWGSLEQEAESVLAQQDDWSTGGQVSRASQVSNSDHKSSKSPESDWSSWEAEGSWEQGWQEPSSQEPPPDGTRLASEYNWGGPESSDKGDPFATLSARPSTQPRPDSWGEDNWEGLETDSRQVKAELARKKREERRREMEAKRAERKVAKGPMKLGARKLD
B2: KIAA1033 (protein, UniProt Q2M389 1-1173)
chain: MAVETLSPDWEFDRVDDGSQKIHAEVQLKNYGKFLEEYTSQLRRIEDALDDSIGDVWDFNLDPIALKLLPYEQSSLLELIKTENKVLNKVITVYAALCCEIKKLKYEAETKFYNGLLFYGEGATDASMVEGDCQIQMGRFISFLQELSCFVTRCYEVVMNVVHQLAALYISNKIAPKIIETTGVHFQTMYEHLGELLTVLLTLDEIIDNHITLKDHWTMYKRLLKSVHHNPSKFGIQEEKLKPFEKFLLKLEGQLLDGMIFQACIEQQFDSLNGGVSVSKNSTFAEEFAHSIRSIFANVEAKLGEPSEIDQRDKYVGICGLFVLHFQIFRTIDKKFYKSLLDICKKVPAITLTANIIWFPDNFLIQKIPAAAKLLDRKSLQAIKIHRDTFLQQKAQSLTKDVQSYYVFVSSWMMKMESILSKEQRMDKFAEDLTNRCNVFIQGFLYAYSISTIIKTTMNLYMSMQKPMTKTSVKALCRLVELLKAIEHMFYRRSMVVADSVSHITQHLQHQALHSISVAKKRVISDKKYSEQRLDVLSALVLAENTLNGPSTKQRRLIVSLALSVGTQMKTFKDEELFPLQVVMKKLDLISELRERVQTQCDCCFLYWHRAVFPIYLDDVYENAVDAARLHYMFSALRDCVPAMMHARHLESYEILLDCYDKEIMEILNEHLLDKLCKEIEKDLRLSVHTHLKLDDRNPFKVGMKDLALFFSLNPIRFFNRFIDIRAYVTHYLDKTFYNLTTVALHDWATYSEMRNLATQRYGLVMTEAHLPSQTLEQGLDVLEIMRNIHIFVSRYLYNLNNQIFIERTSNNKHLNTINIRHIANSIRTHGTGIMNTTVNFTYQFLKKKFYIFSQFMYDEHIKSRLIKDIRFFREIKDQNDHKYPFDRAEKFNRGIRKLGVTPEGQSYLDQFRQLISQIGNAMGYVRMIRSGGLHCSSNAIRFVPDLEDIVNFEELVKEEGLAEETLKAARHLDSVLSDHTRNSAEGTEYFKMLVDVFAPEFRRPKNIHLRNFYIIVPPLTLNFVEHSISCKEKLNKKNKIGAAFTDDGFAMGVAYILKLLDQYREFDSLHWFQSVREKYLKEIRAVAKQQNVQSASQDEKLLQTMNLTQKRLDVYLQEFELLYFSLSSARIFFRADKTAAEENQEKKEKEEETKTSNGDLSDSTVSADPVVK
B3: Dab2/Disabled2 (protein, UniProt P98082 1-770)
chain: MSNEVETSATNGQPDQQAAPKAPSKKEKKKGPEKTDEYLLARFKGDGVKYKAKLIGIDDVPDARGDKMSQDSMMKLKGMAAAGRSQGQHKQRIWVNISLSGIKIIDEKTGVIEHEHPVNKISFIARDVTDNRAFGYVCGGEGQHQFFAIKTGQQAEPLVVDLKDLFQVIYNVKKKEEEKKKIEEASKAVENGSEALMILDDQTNKLKSGVDQMDLFGDMSTPPDLNSPTESKDILLVDLNSEIDTNQNSLRENPFLTNGITSCSLPRPTPQASFLPENAFSANLNFFPTPNPDPFRDDPFTQPDQSTPSSFDSLKSPDQKKENSSSSSTPLSNGPLNGDVDYFGQQFDQISNRTGKQEAQAGPWPFSSSQTQPAVRTQNGVSEREQNGFSVKSSPNPFVGSPPKGLSIQNGVKQDLESSVQSSPHDSIAIIPPPQSTKPGRGRRTAKSSANDLLASDIFAPPVSEPSGQASPTGQPTALQPNPLDLFKTSAPAPVGPLVGLGGVTVTLPQAGPWNTASLVFNQSPSMAPGAMMGGQPSGFSQPVIFGTSPAVSGWNQPSPFAASTPPPVPVVWGPSASVAPNAWSTTSPLGNPFQSNIFPAPAVSTQPPSMHSSLLVTPPQPPPRAGPPKDISSDAFTALDPLGDKEIKDVKEMFKDFQLRQPPAVPARKGEQTSSGTLSAFASYFNSKVGIPQENADHDDFDANQLLNKINEPPKPAPRQVSLPVTKSTDNAFENPFFKDSFGSSQASVASSQPVSSEMYRDPFGNPFA
B4: Scy1-like2 (HeLa) (protein, UniProt Q6P3W7 1-929)
chain: MESMLNKLKSTVTKVTADVTSAVMGNPVTREFDVGRHIASGGNGLAWKIFNGTKKSTKQEVAVFVFDKKLIDKYQKFEKDQIIDSLKRGVQQLTRLRHPRLLTVQHPLEESRDCLAFCTEPVFASLANVLGNWENLPSPISPDIKDYKLYDVETKYGLLQVSEGLSFLHSSVKMVHGNITPENIILNKSGAWKIMGFDFCVSSTNPSEQEPKFPCKEWDPNLPSLCLPNPEYLAPEYILSVSCETASDMYSLGTVMYAVFNKGKPIFEVNKQDIYKSFSRQLDQLSRLGSSSLTNIPEEVREHVKLLLNVTPTVRPDADQMTKIPFFDDVGAVTLQYFDTLFQRDNLQKSQFFKGLPKVLPKLPKRVIVQRILPCLTSEFVNPDMVPFVLPNVLLIAEECTKEEYVKLILPELGPVFKQQEPIQILLIFLQKMDLLLTKTPPDEIKNSVLPMVYRALEAPSIQIQELCLNIIPTFANLIDYPSMKNALIPRIKNACLQTSSLAVRVNSLVCLGKILEYLDKWFVLDDILPFLQQIPSKEPAVLMGILGIYKCTFTHKKLGITKEQLAGKVLPHLIPLSIENNLNLNQFNSFISVIKEMLNRLESEHKTKLEQLHIMQEQQKSLDIGNQMNVSEEMKVTNIGNQQIDKVFNNIGADLLTGSESENKEDGLQNKHKRASLTLEEKQKLAKEQEQAQKLKSQQPLKPQVHTPVATVKQTKDLTDTLMDNMSSLTSLSVSTPKSSASSTFTSVPSMGIGMMFSTPTDNTKRNLTNGLNANMGFQTSGFNMPVNTNQNFYSSPSTVGVTKMTLGTPPTLPNFNALSVPPAGAKQTQQRPTDMSALNNLFGPQKPKVSMNQLSQQKPNQWLNQFVPPQGSPTMGSSVMGTQMNVIGQSAFGMQGNPFFNPQNFAQPPTTMTNSSSASNDLKDLFG
B5: CALM (protein, UniProt Q13492 1-652)
chain: MSGQSLTDRITAAQHSVTGSAVSKTVCKATTHEIMGPKKKHLDYLIQCTNEMNVNIPQLADSLFERTTNSSWVVVFKSLITTHHLMVYGNERFIQYLASRNTLFNLSNFLDKSGLQGYDMSTFIRRYSRYLNEKAVSYRQVAFDFTKVKRGADGVMRTMNTEKLLKTVPIIQNQMDALLDFNVNSNELTNGVINAAFMLLFKDAIRLFAAYNEGIINLLEKYFDMKKNQCKEGLDIYKKFLTRMTRISEFLKVAEQVGIDRGDIPDLSQAPSSLLDALEQHLASLEGKKIKDSTAASRATTLSNAVSSLASTGLSLTKVDEREKQAALEEEQARLKALKEQRLKELAKKPHTSLTTAASPVSTSAGGIMTAPAIDIFSTPSSSNSTSKLPNDLLDLQQPTFHPSVHPMSTASQVASTWGDPFSATVDAVDDAIPSLNPFLTKSSGDVHLSISSDVSTFTTRTPTHEMFVGFTPSPVAQPHPSAGLNVDFESVFGNKSTNVIVDSGGFDELGGLLKPTVASQNQNLPVAKLPPSKLVSDDLDSSLANLVGNLGIGNGTTKNDVNWSQPGEKKLTGGSNWQPKVAPTTAWNAATMAPPVMAYPATTPTGMIGYGIPPQMGSVPVMTQPTLIYSQPVMRPPNPFGPVSGAQIQFM
B6: Sec23 interacting protein p125 (protein, UniProt Q9Y6Y8 1-1000)
chain: MAERKPNGGSGGASTSSSGTNLLFSSSATEFSFNVPFIPVTQASASPASLLLPGEDSTDVGEEDSFLGQTSIHTSAPQTFSYFSQVSSSSDPFGNIGQSPLTTAATSVGQSGFPKPLTALPFTTGSQDVSNAFSPSISKAQPGAPPSSLMGINSYLPSQPSSLPPSYFGNQPQGIPQPGYNPYRHTPGSSRANPYIAPPQLQQCQTPGPPAHPPPSGPPVQMYQMPPGSLPPVPSSVQSPAQQQVPARPGAPSVQVPSPFLLQNQYEPVQPHWFYCKEVEYKQLWMPFSVFDSLNLEEIYNSVQPDPESVVLGTDGGRYDVYLYDRIRKAAYWEEEPAEVRRCTWFYKGDTDSRFIPYTEEFSEKLEAEYKKAVTTNQWHRRLEFPSGETIVMHNPKVIVQFQPSSVPDEWGTTQDGQTRPRVVKRGIDDNLDEIPDGEMPQVDHLVFVVHGIGPVCDLRFRSIIECVDDFRVVSLKLLRTHFKKSLDDGKVSRVEFLPVHWHSSLGGDATGVDRNIKKITLPSIGRFRHFTNETLLDILFYNSPTYCQTIVEKVGMEINHLHALFMSRNPDFKGGVSVAGHSLGSLILFDILSNQKDLNLSKCPGPLAVANGVVKQLHFQEKQMPEEPKLTLDESYDLVVENKEVLTLQETLEALSLSEYFSTFEKEKIDMESLLMCTVDDLKEMGIPLGPRKKIANFVEHKAAKLKKAASEKKAVAATSTKGQEQSAQKTKDMASLPSESNEPKRKLPVGACVSSVCVNYESFEVGAGQVSVAYNSLDFEPEIFFALGSPIAMFLTIRGVDRIDENYSLPTCKGFFNIYHPLDPVAYRLEPMIVPDLDLKAVLIPHHKGRKRLHLELKESLSRMGSDLKQGFISSLKSAWQTLNEFARAHTSSTQLQEELEKVANQIKEEEEKQVVEAEKVVESPDFSKDEDYLGKVGMLNGGRRIDYVLQEKPIESFNEYLFALQSHLCYWESEDTALLLLKEIYRTMNISPEQPQH

Sequences of proteins named here, by UniProt entry; tags and fusion partners are left off. Residues count along the entry.
UniProt P63010, residues 700-937: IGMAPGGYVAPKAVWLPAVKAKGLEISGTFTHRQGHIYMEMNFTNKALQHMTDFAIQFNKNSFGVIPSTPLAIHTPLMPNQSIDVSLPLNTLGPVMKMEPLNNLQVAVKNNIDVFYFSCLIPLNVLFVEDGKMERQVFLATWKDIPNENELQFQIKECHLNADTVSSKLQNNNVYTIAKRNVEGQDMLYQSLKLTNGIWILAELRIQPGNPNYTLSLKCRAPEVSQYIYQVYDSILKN

Target: GST-human-β2-appendage (700–937) (human) (UniProt P63010)
Experiment: affinity purification with mass spectrometry; 30–100 μg GST-appendage on glutathione-sepharose beads in HeLa cell extract (150 mM NaCl, 20 mM HEPES pH 7.4, 2 mM DTT, NP40, 0.1% Tx-100), 1 h at 4 °C, 4 washes; Coomassie bands read by LC-MS/MS; only the target purified

binding, binds:
B1

Target: GST-mouse-α-appendage (α-earL695–983) (mouse)
Experiment: as above

binding, binds:
B2
B3
B4
B5
B6
B1
